This is an account of results in paper PMC10931608.

No constants are given. Whether binding was seen depends on the method and setting. In cells and extracts the contact can be indirect. Some entries that bind do so weakly or less than the wild type.

In this experiment the target is Mitotic spindle positioning (MISP) (human) (UniProt Q8IVT2). Kind of experiment: co-IP; 293FT cells: control, MISP overexpression, OIP5 overexpression, co-overexpression; RIPA lysis buffer with protease and phosphatase inhibitors; IP with rabbit polyclonal anti-MISP or anti-OIP5 antibody on Dynabeads Protein A; Western blot with anti-MISP or anti-OIP5.

For “GFP-tagged Opa interacting protein 5 (OIP5), exogenous (from UniProt O43482 1-229)”, the binding result is recorded as “binds”.
The result for “Opa interacting protein 5 (OIP5), endogenous in 293FT cells (from UniProt O43482 1-229)” reads “binds”.
